Further values from the same series stand in other lists.
Legend:
Format in all cases: cell-based
Conditions in all cases: U-87MG ATCC
[1] = Inhibition of RTK/PI3K/AKT/mTOR signaling in human U87 cells assessed as up regulation of TraB domain containing gene expression at cytotoxic IC50 measured after 48 hrs relative to control
[2] = Inhibition of RTK/PI3K/AKT/mTOR signaling in human U87 cells assessed as up regulation of cadherin EGF LAG seven-pass G-type receptor 3 gene expression at cytotoxic IC50 measured after 48 hrs relative to control
[3] = Inhibition of RTK/PI3K/AKT/mTOR signaling in human U87 cells assessed as down regulation of FAM83H gene expression at cytotoxic IC50 measured after 48 hrs relative to control
[4] = Inhibition of RTK/PI3K/AKT/mTOR signaling in human U87 cells assessed as up regulation of RPS18 gene expression at cytotoxic IC50 measured after 48 hrs relative to control
[5] = Inhibition of RTK/PI3K/AKT/mTOR signaling in human U87 cells assessed as down regulation of ZNF621 gene expression at cytotoxic IC50 measured after 48 hrs relative to control
[6] = Inhibition of RTK/PI3K/AKT/mTOR signaling in human U87 cells assessed as down regulation of GAN gene expression at cytotoxic IC50 measured after 48 hrs relative to control
[7] = Inhibition of RTK/PI3K/AKT/mTOR signaling in human U87 cells assessed as up regulation of membrane associated guanylate kinase, WW and PDZ domain containing 1 gene expression at cytotoxic IC50 measured after 48 hrs relative to control
[8] = Inhibition of RTK/PI3K/AKT/mTOR signaling in human U87 cells assessed as down regulation of GSTO1 gene expression at cytotoxic IC50 measured after 48 hrs relative to control
[9] = Inhibition of RTK/PI3K/AKT/mTOR signaling in human U87 cells assessed as up regulation of ArfGAP with RhoGAP domain, ankyrin repeat and PH domain 3 gene expression at cytotoxic IC50 measured after 48 hrs relative to control
[10] = Inhibition of RTK/PI3K/AKT/mTOR signaling in human U87 cells assessed as down regulation of RFPL4A gene expression at cytotoxic IC50 measured after 48 hrs relative to control
[11] = Inhibition of RTK/PI3K/AKT/mTOR signaling in human U87 cells assessed as down regulation of TMEM106B gene expression at cytotoxic IC50 measured after 48 hrs relative to control
[12] = Inhibition of RTK/PI3K/AKT/mTOR signaling in human U87 cells assessed as up regulation of solute carrier family 16 member 1 gene expression at cytotoxic IC50 measured after 48 hrs relative to control
[13] = Inhibition of RTK/PI3K/AKT/mTOR signaling in human U87 cells assessed as up regulation of leucine rich adaptor protein 1 like gene expression at cytotoxic IC50 measured after 48 hrs relative to control
[14] = Inhibition of RTK/PI3K/AKT/mTOR signaling in human U87 cells assessed as up regulation of D-tyrosyl-tRNA deacylase 2 (putative) gene expression at cytotoxic IC50 measured after 48 hrs relative to control
[15] = Inhibition of RTK/PI3K/AKT/mTOR signaling in human U87 cells assessed as down regulation of CDKN2C gene expression at cytotoxic IC50 measured after 48 hrs relative to control
[16] = Inhibition of RTK/PI3K/AKT/mTOR signaling in human U87 cells assessed as up regulation of TOP1MT gene expression at cytotoxic IC50 measured after 48 hrs relative to control
[17] = Inhibition of RTK/PI3K/AKT/mTOR signaling in human U87 cells assessed as down regulation of SLC44A2 gene expression at cytotoxic IC50 measured after 48 hrs relative to control
[18] = Inhibition of RTK/PI3K/AKT/mTOR signaling in human U87 cells assessed as up regulation of PRR36 gene expression at cytotoxic IC50 measured after 48 hrs relative to control
[19] = Inhibition of RTK/PI3K/AKT/mTOR signaling in human U87 cells assessed as down regulation of ZUFSP gene expression at cytotoxic IC50 measured after 48 hrs relative to control
[20] = Inhibition of RTK/PI3K/AKT/mTOR signaling in human U87 cells assessed as down regulation of HTATSF1 gene expression at cytotoxic IC50 measured after 48 hrs relative to control
[21] = Inhibition of RTK/PI3K/AKT/mTOR signaling in human U87 cells assessed as down regulation of C5orf51 gene expression at cytotoxic IC50 measured after 48 hrs relative to control
[22] = Inhibition of RTK/PI3K/AKT/mTOR signaling in human U87 cells assessed as up regulation of melanoma associated antigen (mutated) 1 gene expression at cytotoxic IC50 measured after 48 hrs relative to control
[23] = Inhibition of RTK/PI3K/AKT/mTOR signaling in human U87 cells assessed as down regulation of PITHD1 gene expression at cytotoxic IC50 measured after 48 hrs relative to control
[24] = Inhibition of RTK/PI3K/AKT/mTOR signaling in human U87 cells assessed as up regulation of anoctamin 9 gene expression at cytotoxic IC50 measured after 48 hrs relative to control
[25] = Inhibition of RTK/PI3K/AKT/mTOR signaling in human U87 cells assessed as down regulation of DGCR6L gene expression at cytotoxic IC50 measured after 48 hrs relative to control
[26] = Inhibition of RTK/PI3K/AKT/mTOR signaling in human U87 cells assessed as up regulation of MCF.2 cell line derived transforming sequence like gene expression at cytotoxic IC50 measured after 48 hrs relative to control
[27] = Inhibition of RTK/PI3K/AKT/mTOR signaling in human U87 cells assessed as down regulation of ZFYVE26 gene expression at cytotoxic IC50 measured after 48 hrs relative to control
[28] = Inhibition of RTK/PI3K/AKT/mTOR signaling in human U87 cells assessed as up regulation of transmembrane protein 63C gene expression at cytotoxic IC50 measured after 48 hrs relative to control
[29] = Inhibition of RTK/PI3K/AKT/mTOR signaling in human U87 cells assessed as up regulation of RHBDD1 gene expression at cytotoxic IC50 measured after 48 hrs relative to control
[30] = Inhibition of RTK/PI3K/AKT/mTOR signaling in human U87 cells assessed as down regulation of SLC35D1 gene expression at cytotoxic IC50 measured after 48 hrs relative to control
[31] = Inhibition of RTK/PI3K/AKT/mTOR signaling in human U87 cells assessed as up regulation of EFNA3 gene expression at cytotoxic IC50 measured after 48 hrs relative to control
[32] = Inhibition of RTK/PI3K/AKT/mTOR signaling in human U87 cells assessed as down regulation of CENPU gene expression at cytotoxic IC50 measured after 48 hrs relative to control

Work on `CC(=O)C(=NNc1ccccc1C#N)C(C)=O` yielded a log2FC [1] of 1.16, a log2FC [2] of 1.07 and a log2FC [3] of -0.451. For the same compound, the log2FC [4] was 0.387, the log2FC [5] was -0.627 and the log2FC [6] was -1.35. For the same compound, the log2FC [7] was 1.29, the log2FC [8] was -0.617 and the log2FC [9] was 1.51. It also gave a log2FC [10] of -6.44, a log2FC [11] of -0.742 and a log2FC [12] of 1.33. It also gave a log2FC [13] of 1.33, a log2FC [14] of 1.05 and a log2FC [15] of -2.45. It also gave a log2FC [16] of 0.543, a log2FC [17] of -1 and a log2FC [18] of 2.24. The log2FC [19] was -0.894, the log2FC [20] was -0.488 and the log2FC [21] was -0.662. The log2FC [22] was 0.744, the log2FC [23] was -1.33 and the log2FC [24] was 1.1. It also gave a log2FC [25] of -1.03, a log2FC [26] of 1.03 and a log2FC [27] of -1.58. The log2FC [28] was 1.35, the log2FC [29] was 0.606 and the log2FC [30] was -1.21. For the same compound, the log2FC [31] was 1.7 and the log2FC [32] was -1.17.
